Measured values published in paper PMC5811606, “Characterization of ^111In-labeled Glucose-Dependent Insulinotropic Polypeptide as a Radiotracer for Neuroendocrine Tumors” (Scientific Reports, 2018).

Assays:
[1] = system: subcutaneous NES2Y tumors; experiment: SPECT/CT imaging, NES2Y tumor mice; type: in vivo, BALB/c nude mice
[2] = system: subcutaneous BHK-GIPR tumors; experiment: SPECT/CT imaging, BHK-GIPR tumor mice; type: in vivo, BALB/c nude mice

## CC[C@H](C)[C@H](NC(=O)[C@H](CO)NC(=O)[C@H](Cc1ccc(O)cc1)NC(=O)[C@H](CC(=O)O)NC(=O)[C@H](CO)NC(=O)[C@@H](NC(=O)[C@H](Cc1ccccc1)NC(=O)[C@@H](NC(=O)CNC(=O)[C@H](CCC(=O)O)NC(=O)[C@H](C)NC(=O)[C@H](Cc1ccc(O)cc1)NC(C)=O)[C@@H](C)O)[C@@H](C)CC)C(=O)N[C@@H](C)C(=O)N[C@@H](CCSC)C(=O)N[C@@H](CC(=O)O)C(=O)N[C@@H](CCCCN)C(=O)N[C@H](C(=O)N[C@@H](Cc1c[nH]cn1)C(=O)N[C@@H](CCC(N)=O)C(=O)N[C@@H](CCC(N)=O)C(=O)N[C@@H](CC(=O)O)C(=O)N[C@@H](Cc1ccccc1)C(=O)N[C@H](C(=O)N[C@@H](CC(N)=O)C(=O)N[C@@H](Cc1c[nH]c2ccccc12)C(=O)N[C@@H](CC(C)C)C(=O)N[C@@H](CC(C)C)C(=O)N[C@@H](C)C(=O)N[C@@H](CCC(N)=O)C(=O)N[C@@H](CCCCN)C(=O)NCC(=O)N[C@@H](CCCCN)C(=O)N[C@@H](CCCCN)C(=O)N[C@@H](CC(N)=O)C(=O)N[C@@H](CC(=O)O)C(=O)N[C@@H](Cc1c[nH]c2ccccc12)C(=O)N[C@@H](CCCCNC(=O)CN(CCN(CCN(CC(=O)O)CC(=O)O)CC(=O)O)CC(=O)O)C(=O)N[C@@H](Cc1c[nH]cn1)C(=O)N[C@@H](CC(N)=O)C(=O)N[C@H](C(=O)N[C@H](C(=O)N[C@@H](CCC(N)=O)C(=O)O)[C@@H](C)O)[C@@H](C)CC)C(C)C)[C@@H](C)CC [[Lys^37(^111In-DTPA)]N-acetyl-GIP1-42, metal not drawn]
[1]; 1 hour after injection, 0.2 µg
  tumor visualization on SPECT/CT: clear tumor uptake
[1]; 1 hour, co-injection 25 µg unlabeled GIP1-42
  tumor tracer uptake on SPECT/CT with excess unlabeled GIP1-42: prevented tracer uptake
[2]; BHK-GIPR tumor, 4 hours, co-injection 25 µg unlabeled GIP1-42
  tumor tracer uptake on SPECT/CT with excess unlabeled GIP1-42: completely blocked
[2]; BHK-GIPR tumors, 1 and 4 hours after injection, 0.2 µg, n=2/group
  tumor visualization on SPECT/CT: clearly visible
